No constants are given. Whether binding was seen depends on the method and setting. Binding seen in cells or lysates may run through a third protein. A result given as binding can be weak or reduced; the word gives no strength. Tags and fused reporters may be left off the sequences shown.
Columns and labels:
Assay in all cases: co-IP; HEK-293T co-transfected with GFP, GFP-USP49Long or GFP-USP49Short (or USP49 mutants) and the FLAG-tagged partner; lysed 24 h later in co-IP buffer (150 mM NaCl, 20 mM Tris-HCl pH 7.4, 1% NP-40, 1 mM MgCl2) with Benzonase; immunoprecipitation with anti-FLAG, control IgG or anti-CETN3 on Dynabeads Protein G; western blot
USP44-FLAG-HA = biological target: T1, USP44-FLAG-HA (UniProt Q9H0E7)
T1 sequence: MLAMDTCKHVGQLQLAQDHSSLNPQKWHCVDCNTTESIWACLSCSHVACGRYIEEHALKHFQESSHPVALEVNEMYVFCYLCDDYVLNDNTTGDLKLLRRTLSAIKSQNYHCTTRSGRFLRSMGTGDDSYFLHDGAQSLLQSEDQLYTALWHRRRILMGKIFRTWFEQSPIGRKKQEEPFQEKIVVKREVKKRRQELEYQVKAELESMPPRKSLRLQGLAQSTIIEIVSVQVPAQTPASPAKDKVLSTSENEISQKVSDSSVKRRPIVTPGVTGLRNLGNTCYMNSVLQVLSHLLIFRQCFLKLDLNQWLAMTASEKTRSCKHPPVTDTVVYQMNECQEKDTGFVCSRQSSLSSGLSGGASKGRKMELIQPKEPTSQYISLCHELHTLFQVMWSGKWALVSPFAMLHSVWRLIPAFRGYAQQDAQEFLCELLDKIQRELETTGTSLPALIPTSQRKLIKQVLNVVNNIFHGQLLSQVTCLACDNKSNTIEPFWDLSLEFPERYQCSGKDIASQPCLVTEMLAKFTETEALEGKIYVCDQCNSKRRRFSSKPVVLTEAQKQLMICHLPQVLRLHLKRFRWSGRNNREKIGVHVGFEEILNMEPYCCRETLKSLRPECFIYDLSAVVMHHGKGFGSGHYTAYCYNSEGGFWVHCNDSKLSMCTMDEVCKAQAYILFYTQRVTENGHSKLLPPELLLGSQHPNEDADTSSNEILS

CETN3-FLAG (human) = biological target: T2, CETN3-FLAG (human) (UniProt O15182)
T2 sequence: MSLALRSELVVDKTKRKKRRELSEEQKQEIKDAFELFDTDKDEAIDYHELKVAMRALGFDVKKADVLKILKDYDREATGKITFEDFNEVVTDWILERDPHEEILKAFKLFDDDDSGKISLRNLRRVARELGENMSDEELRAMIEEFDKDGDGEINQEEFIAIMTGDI

RPN1-FLAG (ribophorin 1) = biological target: T3, RPN1-FLAG (ribophorin 1) (UniProt P04843)
T3 sequence: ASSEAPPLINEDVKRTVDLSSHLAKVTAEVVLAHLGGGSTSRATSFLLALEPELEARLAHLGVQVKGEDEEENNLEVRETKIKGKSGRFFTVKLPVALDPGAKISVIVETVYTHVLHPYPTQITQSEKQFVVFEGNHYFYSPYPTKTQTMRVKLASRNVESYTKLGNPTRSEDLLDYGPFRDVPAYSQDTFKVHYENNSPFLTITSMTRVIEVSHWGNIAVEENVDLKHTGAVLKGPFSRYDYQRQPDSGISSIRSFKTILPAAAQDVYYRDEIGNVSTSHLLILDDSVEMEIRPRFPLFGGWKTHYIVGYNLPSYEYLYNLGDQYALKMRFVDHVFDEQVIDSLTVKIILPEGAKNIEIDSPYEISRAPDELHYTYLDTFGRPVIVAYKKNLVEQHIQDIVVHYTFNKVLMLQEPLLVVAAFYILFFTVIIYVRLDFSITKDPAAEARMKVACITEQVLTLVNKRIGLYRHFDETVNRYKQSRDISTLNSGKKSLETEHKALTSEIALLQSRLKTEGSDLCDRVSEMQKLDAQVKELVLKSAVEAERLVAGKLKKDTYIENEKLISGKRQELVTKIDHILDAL

Row | Substance | binding (USP44-FLAG-HA) | binding (CETN3-FLAG (human)) | binding (RPN1-FLAG (ribophorin 1))
1 | GFP-USP49Short (pCDH-GFP-USP49Short) (enzyme) | binds | binds | –
2 | GFP-USP49Short (pEGFP-USP49Short) (enzyme) | – | – | binds
3 | USP49Short^W158A (enzyme) | – | binds | –

— publication PMC9879932
